These are yes or no findings as the source states them, for the method shown. In cells and extracts the contact can be indirect. Some entries that bind do so weakly or less than the wild type.
Molecular target: Cav1.2, endogenous in mouse heart (mouse (endogenous in mouse heart)) (UniProt Q01815)
Assay: co-IP; endogenous proteins from mouse left ventricles; Dynabeads with anti-Cav1.2 antibody, anti-V5 antibody as control; immunoblot with anti-Myoscape and anti-Cav1.2

Amino acid sequences for entries named in this document (tags omitted).
UniProt Q01815: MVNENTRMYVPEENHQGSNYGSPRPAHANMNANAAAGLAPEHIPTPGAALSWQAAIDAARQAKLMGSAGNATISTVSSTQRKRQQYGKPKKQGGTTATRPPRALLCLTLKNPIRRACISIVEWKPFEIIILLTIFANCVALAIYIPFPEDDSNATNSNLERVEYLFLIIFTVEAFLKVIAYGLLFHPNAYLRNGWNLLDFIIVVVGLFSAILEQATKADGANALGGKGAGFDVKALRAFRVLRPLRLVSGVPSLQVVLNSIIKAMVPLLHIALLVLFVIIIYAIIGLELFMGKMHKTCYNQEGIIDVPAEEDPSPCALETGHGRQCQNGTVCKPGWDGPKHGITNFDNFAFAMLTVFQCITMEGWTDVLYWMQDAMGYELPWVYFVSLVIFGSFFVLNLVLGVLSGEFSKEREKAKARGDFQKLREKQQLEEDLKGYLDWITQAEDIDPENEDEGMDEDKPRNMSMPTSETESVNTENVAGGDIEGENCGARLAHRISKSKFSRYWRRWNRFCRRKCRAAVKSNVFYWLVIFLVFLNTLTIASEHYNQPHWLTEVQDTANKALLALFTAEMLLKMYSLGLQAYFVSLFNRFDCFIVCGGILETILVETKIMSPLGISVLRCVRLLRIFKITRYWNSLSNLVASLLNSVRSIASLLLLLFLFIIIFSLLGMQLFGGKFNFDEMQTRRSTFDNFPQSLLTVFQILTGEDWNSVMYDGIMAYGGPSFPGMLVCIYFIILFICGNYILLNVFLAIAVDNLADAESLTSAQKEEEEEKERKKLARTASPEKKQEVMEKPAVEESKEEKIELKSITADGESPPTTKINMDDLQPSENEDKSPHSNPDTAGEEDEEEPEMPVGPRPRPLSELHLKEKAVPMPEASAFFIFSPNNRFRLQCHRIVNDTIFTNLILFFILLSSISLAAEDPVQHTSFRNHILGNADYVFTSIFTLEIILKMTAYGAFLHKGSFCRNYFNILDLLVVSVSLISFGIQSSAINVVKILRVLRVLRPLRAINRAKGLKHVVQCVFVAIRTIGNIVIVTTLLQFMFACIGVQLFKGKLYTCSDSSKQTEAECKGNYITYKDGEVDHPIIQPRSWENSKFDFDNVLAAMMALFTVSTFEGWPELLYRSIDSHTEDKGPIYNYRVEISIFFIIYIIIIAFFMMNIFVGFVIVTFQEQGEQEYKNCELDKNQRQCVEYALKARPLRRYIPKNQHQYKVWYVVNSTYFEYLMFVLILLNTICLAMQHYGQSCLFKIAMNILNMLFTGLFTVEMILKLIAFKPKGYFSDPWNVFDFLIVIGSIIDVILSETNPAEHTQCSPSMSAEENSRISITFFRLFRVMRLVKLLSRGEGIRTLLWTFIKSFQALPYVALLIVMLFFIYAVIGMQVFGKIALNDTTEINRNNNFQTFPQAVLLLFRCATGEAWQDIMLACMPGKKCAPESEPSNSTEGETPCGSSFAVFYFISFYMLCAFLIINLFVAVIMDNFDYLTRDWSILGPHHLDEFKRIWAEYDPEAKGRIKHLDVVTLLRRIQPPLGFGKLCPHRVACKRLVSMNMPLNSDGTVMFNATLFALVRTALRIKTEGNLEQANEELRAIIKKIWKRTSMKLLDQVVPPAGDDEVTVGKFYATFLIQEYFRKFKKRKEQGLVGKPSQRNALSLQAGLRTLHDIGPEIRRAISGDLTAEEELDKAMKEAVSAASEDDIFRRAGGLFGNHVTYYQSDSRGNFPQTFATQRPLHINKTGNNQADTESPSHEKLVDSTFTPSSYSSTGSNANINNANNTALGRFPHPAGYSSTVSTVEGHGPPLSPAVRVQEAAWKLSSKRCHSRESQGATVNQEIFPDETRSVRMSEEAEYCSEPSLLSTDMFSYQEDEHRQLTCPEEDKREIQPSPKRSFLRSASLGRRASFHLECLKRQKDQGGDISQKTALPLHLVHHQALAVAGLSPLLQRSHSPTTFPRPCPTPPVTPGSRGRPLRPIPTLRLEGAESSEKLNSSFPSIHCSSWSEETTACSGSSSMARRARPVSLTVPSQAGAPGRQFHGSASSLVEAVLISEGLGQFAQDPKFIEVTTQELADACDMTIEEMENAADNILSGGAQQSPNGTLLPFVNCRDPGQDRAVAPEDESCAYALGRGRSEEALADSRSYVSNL

Q: Which binding does the source give for “Myoscape, endogenous in mouse heart (from UniProt Q8C9H6-1 1-844)” here?
A: Its binding is “binds”.

Source: publication PMC5438100
